Results as given in PubChem BioAssay AID540256 (National Center for Advancing Translational Sciences (NCATS), 2011).
Out of some 300,000 compounds screened, about 3,700 (1.2%) were called active. This list was built around the results that the source calls inconclusive (neither active nor inactive); the mix of calls is not that of the screen. Calls come from the whole dose curve; tested in HEK293 cells. Where the call is inconclusive, the potency comes from a doubtful curve fit.
Potency is the fitted concentration of half-maximal effect.

Assay: qHTS for Inhibitors of binding or entry into cells for Lassa Virus; note: nearly all actives have a fitted effect of over 50% in size
Conditions: Lassa virus pseudotype entry inhibition, cell reporter; series mostly up to 37.9 µM
With COc1ccc(C(=O)Cn2nnc(-c3ccccc3NC(=O)c3ccco3)n2)cc1 the Potency was inconclusive: 10 µM [inhibitor, partial curve]. In the case of COc1ccc(NC(=O)Cn2c(=O)n(C(C)C)c(=O)c3oc4ccccc4c32)cc1Cl, the Potency is reported as “inactive”. With CC(=O)N1CCN(c2csc3ccc(F)cc3c2=O)CC1 the Potency was “inactive”. In the case of COc1ccccc1N(CC(=O)NCCSCc1ccccc1)S(=O)(=O)c1ccc(C)cc1, the Potency is reported as inconclusive: 14.1 µM [inhibitor, partial curve, poor fit]. With COCCNC(=O)Cn1nc(N2CCN(c3ccccc3OC)CC2)ccc1=O the Potency was “inactive”. In the case of COc1ccc(/C(C)=N/Nc2cccc(C(=O)O)c2)cc1OC, the Potency is reported as inconclusive: 1.26 µM [inhibitor, single point]. With COc1cccc(OCCNC(=O)c2ccc(C)cc2)c1 the Potency was “inactive”. For CCNc1ccccc(-c2ccc3ccccc3n2)c1=O, the Potency was “inactive”. For CCc1ccccc1NC(=O)c1ccc(CN2CCC(Cc3ccccc3)CC2)cc1, the Potency was inconclusive: 35.5 µM [inhibitor, single point]. With CCOc1cc(NC(=S)Nc2cccc(OC)c2)c(OCC)cc1NC(=O)C1CC1 the Potency was inconclusive: 16.4 µM [inhibitor, single point]. With COc1ccc(/C=C/C(=O)Nc2ccccc2C(F)(F)F)cc1OC the Potency was inconclusive: 5.62 µM [activator, single point]. With C#CCN1C(=O)CC[C@@]23C1=NC(C(=O)OC)=C(C(=O)OC)[C@@H]2N(CC=C(C)C)c1ccccc13 the Potency was inconclusive: 5.31 µM [inhibitor, single point]. In the case of COc1ccc(C(CNC(=O)C(C)c2ccc3cc(OC)ccc3c2)N(C)C)cc1 (stereo not drawn), the Potency is reported as inconclusive: 35.5 µM [inhibitor, single point]. For CCOc1ccccc1CNC(=O)Cn1ccc2cc(S(=O)(=O)N3CCCC3)ccc21, the Potency was “inactive”. With Cc1cc(C)cc(N2C(=O)C=CC2=O)c1 the Potency was inconclusive: 22.4 µM [inhibitor, single point]. In the case of CCCCn1c(N)c(N(CC(C)C)C(=O)CCCn2c(=O)oc3ccccc32)c(=O)[nH]c1=O, the Potency is reported as “inactive”. In the case of COCCn1cnc2c1c(=O)n(Cc1c(F)cccc1Cl)c(=O)n2Cc1ccccc1, the Potency is reported as inconclusive: 8.91 µM [inhibitor, partial curve, poor fit]. With COCCN1C(=O)C(CC(=O)Nc2ccc(C(=O)O)cc2)SC1=Nc1ccccc1 (stereo not drawn) the Potency was “inactive”. With CC(C)C(NC(=O)c1ccccc1)C(=O)NC1=NCCS1 (stereo not drawn) the Potency was inconclusive: 0.461 µM [inhibitor, full curve, poor fit]. In the case of COc1ccc2c(c1)CC/C(=C/c1cc(OC)c(OC)c(OC)c1)C2=O, the Potency is reported as “inactive”. With S=C(Nc1cccnc1)NC1CC2CCC1C2 (stereo not drawn) the Potency was “inactive”. With Fc1ccc(Oc2ccnc(Cl)n2)c(Cl)c1 the Potency was inconclusive: 12.6 µM [activator, partial curve, poor fit]. For O=C(Nc1cccc(S(=O)(=O)N2CCCCC2)c1)c1cc2ccccc2o1, the Potency was inconclusive: 0.251 µM [inhibitor, full curve]. For CC(=O)c1sc2nsc(SCCN3CCOCC3)c2c1N, the Potency was “inactive”. In the case of COc1ccc(/C=C/C(=O)NCC2COc3ccccc3O2)cc1OC (stereo not drawn), the Potency is reported as “inactive”. For COc1ccc(CCn2c(=S)[nH]c3ccc(N4CCOCC4)cc3c2=O)cc1OC, the Potency was inconclusive: 0.891 µM [inhibitor, partial curve, poor fit]. In the case of O=C(NC1CCCCC1)c1ccc([N+](=O)[O-])cc1, the Potency is reported as inconclusive: 5.62 µM [activator, partial curve]. For Cc1cc(C=O)c(C)n1-c1ccc(NC2CCCC2)c([N+](=O)[O-])c1, the Potency was inconclusive: 17.8 µM [inhibitor, partial curve, poor fit]. With CC1CCN(c2ccc(-c3cccc(NC(=O)c4ccco4)c3)nn2)CC1 the Potency was active: 2.51 µM. With Cc1ccccc1CN(c1ccc(C(=O)Nc2ccccc2C(=O)N2CCCC2)cc1)S(C)(=O)=O the Potency was inconclusive: 32.6 µM [inhibitor, single point]. For CC(C)C1C(=O)N(Cc2cn(CCC3OCCO3)nn2)CCS(=O)(=O)N1Cc1ccc(-c2ccc(F)cc2)cc1 (stereo not drawn), the Potency was inconclusive: 11.2 µM [inhibitor, full curve, poor fit]. In the case of Cc1c(C)n2c(SCC(=O)N3CCCCC3)nnc2[nH]c1=O, the Potency is reported as “inactive”. For COc1cccc(CNC(=O)CCc2cn(Cc3ccccc3Cl)c3ccccc23)c1, the Potency was “inactive”. For Cc1ccc(CSc2nnc(SCC(=O)N/N=C/c3ccc(C(=O)O)cc3)s2)cc1, the Potency was inconclusive: 14.6 µM [inhibitor, partial curve, poor fit]. With Fc1ccccc1N=C1NN=C(c2ccccc2)CS1 the Potency was inconclusive: 35.5 µM [inhibitor, single point]. With C/C(=N\NC(=O)c1nnn(-c2nonc2N)c1COc1ccc(F)cc1)c1ccc(Cl)cc1 the Potency was inconclusive: 25.1 µM [inhibitor, single point]. With CCC(=O)Nc1cccc(NC(=O)c2ccccc2Br)c1 the Potency was inconclusive: 0.224 µM [inhibitor, full curve, poor fit]. For Nc1ccc(C(=O)OCC(=O)c2cccc([N+](=O)[O-])c2)cc1, the Potency was inconclusive: 5.01 µM [inhibitor, single point]. For Cc1cccc(-c2noc(-c3ccc4c(c3)OCO4)n2)c1, the Potency was inconclusive: 3.55 µM [inhibitor, full curve]. For CC(=O)Nc1cccc(NC(=O)c2ccc(COc3ccccc3)cc2)c1, the Potency was inconclusive: 35.5 µM [activator, single point]. In the case of Cc1ccc(NC(=O)Cc2ccc(-n3c(C)nc4cccnc43)cc2)cc1C, the Potency is reported as inconclusive: 35.5 µM [inhibitor, single point]. With Cc1cc(C)c(NC(=O)C(C)n2nc(-c3ccc(C)c(C)c3)ccc2=O)c(C)c1 (stereo not drawn) the Potency was “inactive”. With CCCCNC(=O)N1CCOCCOCCN(C(=O)NCCCC)CCOCCOCC1 the Potency was “inactive”. For O=S(=O)(c1ccc(F)cc1)N1CCN(C(=S)NCCc2ccccc2)CC1, the Potency was “inactive”. In the case of CCOC(=O)C1CCCN(C(=O)c2cc(Nc3ccc(OC)cc3)nc3ccccc23)C1 (stereo not drawn), the Potency is reported as inconclusive: 0.461 µM [inhibitor, partial curve]. For COc1ccc(S(=O)(=O)Nc2ccc(C)cc2)cc1N(C)S(=O)(=O)c1ccc(Cl)cc1, the Potency was inconclusive: 20.6 µM [inhibitor, partial curve, poor fit]. In the case of CCN(CC)c1ccc(C2C(C(=O)Nc3ccccn3)=C(C)NC3=C2C(=O)CC(C)(C)C3)cc1 (stereo not drawn), the Potency is reported as “inactive”. In the case of Cc1cccc(NC(=S)N(CCCN(C)C)Cc2cc3cc4c(cc3[nH]c2=O)OCO4)c1, the Potency is reported as inconclusive: 11.2 µM [inhibitor, partial curve, poor fit]. For CCOc1ccc(NC(=O)c2ccc(NC(=O)N3CCSc4ncccc43)cc2)cc1, the Potency was “inactive”. With COc1ccc(C2CC(=O)c3cc(-c4nc(-c5cccc(Cl)c5)cs4)c(=O)[nH]c3C2)cc1OC (stereo not drawn) the Potency was “inactive”. In the case of O=C(c1ccc2ncsc2c1)N1CCN(c2ccccc2Cl)CC1, the Potency is reported as inconclusive: 35.5 µM [inhibitor, single point]. In the case of COc1ccccc1N1CCN(Cc2ccsc2)CC1, the Potency is reported as inconclusive: 6.51 µM [inhibitor, partial curve, poor fit]. With CCOC(=O)c1ccc(NC(=O)c2c(-c3c(F)cccc3Cl)noc2C)cc1 the Potency was inconclusive: 11.2 µM [inhibitor, partial curve, poor fit]. With CCc1n[nH]c(=S)n1/N=C/c1ccc(N(CC)CC)cc1 the Potency was inconclusive: 12.6 µM [inhibitor, single point]. With CCN(CC)CCNC(=S)N1CCn2c(nc3ccccc32)C1 the Potency was inconclusive: 22.4 µM [activator, single point]. In the case of c1ccc2nc3c(nc2c1)[nH]c1ccccc13, the Potency is reported as inconclusive: 8.2 µM [inhibitor, partial curve, poor fit]. With Cc1cccc(N2CCN(c3ncnc4c3nc3n4CCCCC3)CC2)c1C the Potency was “inactive”. In the case of CC1CCCN(C(=O)CSc2nnc(-c3c[nH]c4ccccc34)o2)C1 (stereo not drawn), the Potency is reported as inconclusive: 18.3 µM [inhibitor, partial curve, poor fit]. For CN(Cc1ccccc1)C(=O)c1ccccc1N(C)S(=O)(=O)c1ccccc1, the Potency was inconclusive: 25.1 µM [inhibitor, partial curve, poor fit]. For O=C1N=C(N2CCc3ccccc3C2)S/C1=C\c1cccc(O)c1, the Potency was active: 20.6 µM. In the case of CC(=O)c1ccc(N2CCN(c3ncnc4c3c(-c3ccccc3)cn4-c3cccc(C)c3)CC2)cc1, the Potency is reported as “inactive”. For CC(CCN1CC1)=NNC(=O)Nc1cccc2ccccc12, the Potency was inconclusive: 31.6 µM [inhibitor, partial curve, poor fit]. For Cc1cccc(OCCCC(=O)Nc2nc3ccccc3[nH]2)c1, the Potency was inconclusive: 35.5 µM [inhibitor, single point]. For COc1cc(C(CC(=O)NCc2ccc(F)cc2)N2Cc3ccccc3C2=O)cc(OC)c1OC (stereo not drawn), the Potency was “inactive”. With COc1ccc(NC(=O)Cn2c(=O)n(-c3ccc(OC)c(OC)c3)c(=O)c3ccccc32)cc1 the Potency was inconclusive: 2.82 µM [inhibitor, partial curve, poor fit]. In the case of COc1ccccc1NC(=O)C1=C(C)Nc2c(C(=O)Nc3ccc(F)cc3)cnn2C1c1cccc([N+](=O)[O-])c1 (stereo not drawn), the Potency is reported as “inactive”. In the case of CC(=O)N1CCc2cc(Br)cc(S(=O)(=O)N3CCN(c4cccc(C(F)(F)F)c4)CC3)c21, the Potency is reported as inconclusive: 14.1 µM [activator, partial curve]. In the case of CCCCc1n[nH]c2c1/C(=N/O)CC(c1ccccc1)C2 (stereo not drawn), the Potency is reported as inconclusive: 35.5 µM [inhibitor, single point].
